# Data taken from patent US12109204B2, “Methods for treating muscular dystrophies” (The Regents of the University of California, priority 2018, dated 2024).
# For at least one compound, name, drawing or mass did not settle the structure.
# Test system: hSSPN-EGFP myotubes (human sarcospan promoter reporter in C2C12)
# Assay: hSSPN-EGFP reporter myotube assay (high-content imaging)
# Type: cell-based, murine
# Conditions: primary screen of 3,200 molecules, 5.5 μM, 48 hours, n=1; hit cutoff 1.4-fold
# Description: C2C12 immortalized murine myoblasts cultured in growth media consisting of DMEM (Gibco) with 20% Fetal Bovine Serum (Sigma-Aldrich) at 37° C. with 5% CO2 were transfected with the hSSPN-EGFP or hSSPN-Luciferase linearized plasmids using Lipofectamine 3000 Transfection Reagent (Thermo Fisher Scientific). Transfected cells were selected using 800 μg/ml of G418 (Sigma-Aldrich) for 4 weeks to generate stable cell lines expressing reporter protein under control of the human SSPN promoter.
# hSSPN-EGFP myoblasts were seeded at 500 cells per well in 50 μl of growth media in 384-well black, clear bottom microplates (Greiner) using a Multidrop 384 (Thermo Fisher Scientific) and incubated for 3 days. Upon reaching confluency, the growth media was replaced with 50 μl of differentiation media consisting of DMEM with 2% horse serum (Sigma-Aldrich) using an EL406 combination washer dispenser (Biotek). At day 2 of differentiation, the media on the cells was aspirated, left with a residual volume of 10 μl, and replaced with 30 μl of fresh differentiation media. 0.5 μl of small molecule in DMSO or DMSO alone (for vehicle and positive control wells) was added to each well using a Biomek Fx (Beckman). […] The fluorescent intensity of imaged cells was determined using MetaXpress Analysis software (Molecular Devices). […]
smiles,measurement,value
"CC(=O)OC1CN2CCC1CC2 (stereo not shown) [Aceclidine, 1-Azabicyclo[2.2.2]oct-3-yl acetate]","fluorescence intensity over vehicle, primary screen hit call",hits
